According to publication doi:10.1101/2024.06.27.600789:
No constants are given. Whether binding was seen depends on the method and setting. For part of these data: Binding seen in cells or lysates may run through a third protein. Some entries that bind do so weakly or less than the wild type.

Protein sequences, listed by entry. Tags and fused reporters are not part of them. Lines headed by an entry give the natural chain unless they say otherwise; changes in a name come on top. Residues count along the entry.
UniProt Q9UHB6, residues 161-759: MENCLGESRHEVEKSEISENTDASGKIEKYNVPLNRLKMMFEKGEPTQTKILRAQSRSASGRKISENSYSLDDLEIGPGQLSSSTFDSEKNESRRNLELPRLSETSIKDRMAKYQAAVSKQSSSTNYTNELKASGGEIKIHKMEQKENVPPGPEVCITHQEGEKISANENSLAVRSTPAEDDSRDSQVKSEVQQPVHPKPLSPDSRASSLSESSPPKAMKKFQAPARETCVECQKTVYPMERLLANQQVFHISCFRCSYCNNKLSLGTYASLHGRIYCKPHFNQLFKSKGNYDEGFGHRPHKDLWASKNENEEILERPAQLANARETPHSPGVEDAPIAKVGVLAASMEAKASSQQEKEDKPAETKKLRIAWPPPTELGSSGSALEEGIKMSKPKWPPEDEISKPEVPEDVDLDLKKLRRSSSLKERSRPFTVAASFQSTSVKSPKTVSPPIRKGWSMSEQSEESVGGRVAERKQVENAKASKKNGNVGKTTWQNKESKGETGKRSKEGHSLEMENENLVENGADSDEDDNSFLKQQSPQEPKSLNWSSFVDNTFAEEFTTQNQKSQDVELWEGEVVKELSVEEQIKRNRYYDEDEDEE
UniProt Q9UL25: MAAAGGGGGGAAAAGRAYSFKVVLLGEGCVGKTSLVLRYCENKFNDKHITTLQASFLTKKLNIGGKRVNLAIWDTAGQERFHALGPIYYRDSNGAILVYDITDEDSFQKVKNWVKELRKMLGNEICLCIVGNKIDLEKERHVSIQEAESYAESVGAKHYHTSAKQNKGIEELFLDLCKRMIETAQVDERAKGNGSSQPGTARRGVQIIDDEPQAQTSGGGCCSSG

Key:
[1] = biological target: StrepII-EPLINα WT (human) (UniProt Q9UHB6); assay: pull-down
[2] = biological target: Rab21 fused to the V1 half of Venus (pDEST-Rab21-V1) (UniProt Q9UL25); assay: split reporter
[3] = biological target: GppNHp-loaded recombinant Rab21, fluorescently labelled (UniProt Q9UL25); assay: MST

In the case of “ARPC1B, a subunit of the ARP2/3 complex (from UniProt O15143 1-372)”, the binding [1] is reported as “binds”.

For “EPLINα fused to the V2 half of Venus (pDEST-V2-EPLINα) (from UniProt Q9UHB6-2 1-599)”, the binding [2] was “binds”.

“GST-tagged EPLINα (from UniProt Q9UHB6-2 1-599)” was tested, and the binding [3] was “binds”.
